Results: PMC2358886, “Evolution of pharmacologic specificity in the pregnane X receptor” (BMC Evolutionary Biology, 2008)

Assays:
human PXR = target: T1, human PXR (Homo sapiens, UniProt O75469)
T1 sequence (O75469 1-434): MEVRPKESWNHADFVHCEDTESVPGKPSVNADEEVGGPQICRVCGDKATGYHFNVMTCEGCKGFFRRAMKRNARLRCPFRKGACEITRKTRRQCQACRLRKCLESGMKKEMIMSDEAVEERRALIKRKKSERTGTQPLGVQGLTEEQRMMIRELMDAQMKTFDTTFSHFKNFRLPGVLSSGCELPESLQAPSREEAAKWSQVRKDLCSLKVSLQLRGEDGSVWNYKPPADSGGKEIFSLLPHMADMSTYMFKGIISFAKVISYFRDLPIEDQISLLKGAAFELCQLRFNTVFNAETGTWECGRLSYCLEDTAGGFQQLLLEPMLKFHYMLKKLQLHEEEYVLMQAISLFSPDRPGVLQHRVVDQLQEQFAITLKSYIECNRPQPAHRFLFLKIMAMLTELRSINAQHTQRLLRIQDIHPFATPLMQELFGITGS

HepG2 cells = conditions: human, 24 hr
mouse PXR = target: T2, mouse PXR (Mus musculus, UniProt O54915); conditions: relative to 20 μM pregnenolone 16α-carbonitrile, assigned an efficacy of 1.0
T2 sequence (O54915 1-431): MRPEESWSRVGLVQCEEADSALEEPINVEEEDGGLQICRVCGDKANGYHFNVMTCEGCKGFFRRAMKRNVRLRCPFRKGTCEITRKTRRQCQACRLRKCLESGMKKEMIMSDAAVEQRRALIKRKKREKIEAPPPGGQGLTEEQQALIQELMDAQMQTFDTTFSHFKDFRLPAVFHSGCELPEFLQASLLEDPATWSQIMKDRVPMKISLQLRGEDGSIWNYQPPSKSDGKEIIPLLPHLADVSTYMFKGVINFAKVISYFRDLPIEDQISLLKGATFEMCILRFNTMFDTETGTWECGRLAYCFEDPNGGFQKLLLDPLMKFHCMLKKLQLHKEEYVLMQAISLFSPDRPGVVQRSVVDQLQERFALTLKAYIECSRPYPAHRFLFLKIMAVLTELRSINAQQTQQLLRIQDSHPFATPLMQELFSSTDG

rat PXR = target: T3, rat PXR (Rattus norvegicus, UniProt Q9R1A7); conditions: relative to 20 μM pregnenolone 16α-carbonitrile, assigned an efficacy of 1.0
T3 sequence (Q9R1A7 1-431): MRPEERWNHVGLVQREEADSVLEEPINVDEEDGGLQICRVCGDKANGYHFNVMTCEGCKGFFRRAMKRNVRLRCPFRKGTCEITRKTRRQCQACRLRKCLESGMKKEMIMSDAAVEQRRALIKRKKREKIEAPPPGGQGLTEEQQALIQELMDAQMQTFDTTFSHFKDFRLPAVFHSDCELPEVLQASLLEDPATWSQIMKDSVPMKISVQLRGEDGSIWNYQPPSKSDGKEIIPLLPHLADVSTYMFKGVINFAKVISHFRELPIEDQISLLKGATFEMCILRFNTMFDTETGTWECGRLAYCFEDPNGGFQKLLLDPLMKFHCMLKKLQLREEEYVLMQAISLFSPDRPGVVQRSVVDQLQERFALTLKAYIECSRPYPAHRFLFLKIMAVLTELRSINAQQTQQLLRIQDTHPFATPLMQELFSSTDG

rabbit PXR = target: T4, rabbit PXR (Oryctolagus cuniculus, UniProt Q9TU02); experiment: PXR activation luciferase reporter assay, rabbit PXR; conditions: relative to 50 μM 5α-pregnan-3,20-dione, assigned an efficacy of 1.0
T4 sequence (Q9TU02 1-411): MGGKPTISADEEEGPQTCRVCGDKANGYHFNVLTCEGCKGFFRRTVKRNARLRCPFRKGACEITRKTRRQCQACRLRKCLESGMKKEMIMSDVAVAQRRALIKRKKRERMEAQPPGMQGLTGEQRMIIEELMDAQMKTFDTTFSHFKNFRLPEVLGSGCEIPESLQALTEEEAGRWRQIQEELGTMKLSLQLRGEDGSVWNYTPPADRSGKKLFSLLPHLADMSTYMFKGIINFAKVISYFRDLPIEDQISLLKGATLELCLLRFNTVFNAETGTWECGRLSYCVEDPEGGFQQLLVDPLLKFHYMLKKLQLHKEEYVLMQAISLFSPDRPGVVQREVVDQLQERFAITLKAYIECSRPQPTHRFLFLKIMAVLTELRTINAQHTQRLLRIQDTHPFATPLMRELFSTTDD

`COC(=O)C1=C(C)NC(C)=C(C(=O)OC)C1c1ccccc1[N+](=O)[O-]` [MI22, Nifedipine] was tested, and the “hPXR Efficacy” value (human PXR) was 0.41, the Toxicity (HepG2 cells) was 50 µM and the “Mouse PXR efficacy, ε” value (mouse PXR) was 4.64 (ε = 0.51). The “Rat PXR efficacy, ε” value (rat PXR) was 5.26 (ε = 0.68) and the “Rabbit PXR efficacy, ε” value (rabbit PXR) was 4.61 (ε = 0.29).
